Results published in the supplement of paper PMC12067093, “Discovery and optimisation of a covalent ligand for TRIM25 and its application to targeted protein ubiquitination” (Chemical Science, 2025).
This is one part of the list.

Compound: CC1Cc2ccccc2N1C(=O)C1CCCN(C1)C(=O)CCl (mixture of isomers) [TRIM25 ligand 11 (diastereomer mixture)]
Test: probe-labelled cysteine peptide fold change vs DMSO (competition) (log2 fold change); higher = less target engagement (more negative = stronger competition)
Settings: THP-1, incubation time: 4 h
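Also: competitive chemoproteomic profiling in live THP-1 cells with an iodoacetamide desthiobiotin (IA-DTB) probe, comparing probe-labelled peptide intensities in compound-treated cells against DMSO-treated controls.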

Row | Target | probe-labelled cysteine peptide fold change (10 µM) | probe-labelled cysteine peptide fold change (50 µM)
1 | MMAA_Q8IVH4_100_ACLAEAITLVESTHSR (UniProt Q8IVH4) | 0.0656 | 0.0204
2 | MPC1_Q9Y5U8_83_NWLLFACHATNEVAQLIQGGR (UniProt Q9Y5U8) | -0.109 | -0.0149
3 | MPP5_Q8N3R9_366_AHFDYDPSDDPYVPCR (UniProt Q8N3R9) | -0.321 | -0.153
4 | MRPL16_Q9NX20_167_CEFEEVQGFLDQVAHK (UniProt Q9NX20) | -0.0709 | -0.0773
5 | MIF_P14174_57_ASVPDGFLSELTQQLAQATGKPPQYIAVHVVPDQLMAFGGSSEPCALCSLHSIGK (UniProt P14174) | -0.257 | -0.285
6 | MMADHC_Q9H3L0_148_VECAIQTCPELLRK (UniProt Q9H3L0) | -0.102 | -0.141
7 | MRGBP_Q9NV56_170_NSSDLGCK (UniProt Q9NV56) | -0.192 | -0.0723
8 | MLYCD_O95822_206_VTWHSPCEVLQK (UniProt O95822) | 0.00519 | -0.0314
9 | MKI67_P46013_35_GIECDIR (UniProt P46013) | 0.109 | 0.259
10 | MORC3_Q14149_797+800_AECSQCSNNESK (UniProt Q14149) | -0.0151 | 0.0457
11 | MLKL_Q8NB16_437_RQQEPLGEDCPSELREIIDECR (UniProt Q8NB16) | -0.118 | -0.137
12 | MRC2_Q9UBG0_1234_TTSCDTK (UniProt Q9UBG0) | 0.0668 | 0.0519
13 | MKLN1_Q9UL63_582_SLQEEEPCPR (UniProt Q9UL63) | 0.00509 | -0.115
14 | MIF4GD_A9UHW6_150_LAQPDSLSKEEEVDCLVLQLHR (UniProt A9UHW6) | -0.152 | 0.0168
15 | MMADHC_Q9H3L0_261+262_HLGFSVDDLGCCK (UniProt Q9H3L0) | 0.0906 | -0.242
16 | MKNK1_Q9BUB5_219_DLKPENILCESPEK (UniProt Q9BUB5) | -0.0739 | -0.134
17 | MGST1_P10620_50_KVFANPEDCVAFGK (UniProt P10620) | 0.00983 | 0.0793
18 | MNDA_P41218_274_VITISDYSECK (UniProt P41218) | 0.0525 | 0.127
19 | MON1B_Q7L1V2_297_NVLAECR (UniProt Q7L1V2) | -0.0116 | 0.0726
20 | MMADHC_Q9H3L0_52_AFSTAGSSGSDESHVAAAPPDICSR (UniProt Q9H3L0) | 0.127 | -0.237
21 | MORC3_Q14149_717_QCHMFTDQIK (UniProt Q14149) | -0.0943 | 0.000884
22 | MRPL39_Q9NYK5_133_DCDPGEVNK (UniProt Q9NYK5) | -0.0874 | -0.21

Row | Target | probe-labelled cysteine peptide fold change (10 µM) | probe-labelled cysteine peptide fold change (50 µM)
23 | MRC2_Q9UBG0_521_AGQLSQGAAEEDHGCRK (UniProt Q9UBG0) | 0.141 | 0.032
24 | MIOS_Q9NXC5_621_VAFACK (UniProt Q9NXC5) | -0.0547 | 0.0123
25 | MPI_P34949_289_GDCVECMACSDNTVR (UniProt P34949) | 0.104 | 0.117
26 | MICALL1_Q8N3F8_597_GSSGPQPAKPCSGATPTPLLLVGDR (UniProt Q8N3F8) | -0.0838 | -0.301
27 | MKNK2_Q9HBH9_136_EVEMLYQCQGHR (UniProt Q9HBH9) | 0.495 | 0.556
28 | MMS19_Q96T76_502_EDSQSCR (UniProt Q96T76) | -0.0672 | 0.0671
29 | MMS19_Q96T76_386_ACDSVTSNVLPLLLEQFHK (UniProt Q96T76) | 0.0546 | 0.0807
30 | MGA_Q8IWI9_1238_EEDKDPVYLYFESMMTCAR (UniProt Q8IWI9) | 0.0928 | 0.0487
31 | MLLT1_Q03111_42_GPEQCDIQHFVEK (UniProt Q03111) | 0.0642 | 0.127
32 | MIER1_Q8N108_293_EELSVWTEEECRNFEQGLK (UniProt Q8N108) | -0.251 | -0.158
33 | MOGS_Q13724_602_CWVALGAR (UniProt Q13724) | -0.0135 | -0.0553
34 | MKRN1_Q9UHC7_69_YFMHGVCK (UniProt Q9UHC7) | -0.00165 | 0.0178
35 | MNDA_P41218_274_KVITISDYSECK (UniProt P41218) | -0.0141 | 0.0458
36 | MKLN1_Q9UL63_393_LVFDHQMCMDSEK (UniProt Q9UL63) | 0.0587 | -0.102
37 | MGA_Q8IWI9_1313_SSCNEGESSSTSYMHQR (UniProt Q8IWI9) | 0.217 | -0.252
38 | MKI67_P46013_643_SQHDILQMICSK (UniProt P46013) | 0.104 | -0.404
39 | MINK1_Q8N4C8_269_KFIDFIDTCLIK (UniProt Q8N4C8) | -0.175 | -0.00214
40 | MLH1_P40692_77_EDLDIVCER (UniProt P40692) | 0.128 | 0.189
41 | MRPL17_Q9NRX2_129_GNCLPPLPLPR (UniProt Q9NRX2) | -0.259 | -0.267
42 | MRE11_P49959_249_HGSTNFIPEQFLDDFIDLVIWGHEHECK (UniProt P49959) | -0.0677 | -0.0212
43 | MICAL2_O94851_703_SLGSNQECGSSK (UniProt O94851) | -0.0534 | -0.125
44 | MILR1_Q7Z6M3_329_EQEACDSYK (UniProt Q7Z6M3) | -0.0428 | -0.188

Row | Target | probe-labelled cysteine peptide fold change (10 µM) | probe-labelled cysteine peptide fold change (50 µM)
45 | MIF_P14174_81_LLCGLLAER (UniProt P14174) | -0.156 | -0.117
46 | MPHOSPH9_Q99550_647_CGQLDSALHEATSR (UniProt Q99550) | -0.0776 | -0.051
47 | MIS18BP1_Q6P0N0_528_ATTTYDFDCDNLELK (UniProt Q6P0N0) | -0.0826 | 0.0461
48 | MGST1_P10620_50_VFANPEDCVAFGKGENAKK (UniProt P10620) | -0.506 | -0.196
49 | MRI1_Q9BV20_285_HHGIPFYVAAPSSSCDLR (UniProt Q9BV20) | 0.0223 | -0.165
50 | MOB3A_Q96BX8_186_IAQMGSEAHVNTCYK (UniProt Q96BX8) | 0.138 | 0.153
51 | MRPL44_Q9H9J2_167_NLVDFLTGEEVVCHVAR (UniProt Q9H9J2) | 0.159 | 0.17
52 | MLLT10_P55197_140_TCYICDEQGR (UniProt P55197) | 0.277 | 0.186
53 | MRC2_Q9UBG0_213_EDGHLWCATTQDYGKDER (UniProt Q9UBG0) | -0.0873 | -0.0151
54 | MPP1_Q00013_454_KLQEAFDQACSSPQWVPVSWVY (UniProt Q00013) | -0.0123 | -0.17
55 | MRPL37_Q9BZE1_177_ETYCPVIVDNLIQLCK (UniProt Q9BZE1) | 0.141 | 0.029
56 | MNDA_P41218_61_FQGVACLDK (UniProt P41218) | -0.0164 | -0.0415
57 | MKI67_P46013_1007_MPCQSLQPEPINTPTHTK (UniProt P46013) | -0.17 | -0.324
58 | MPST_P25325_65_HIPGAAFFDIDQCSDR (UniProt P25325) | 0.0233 | -0.09
59 | MINPP1_Q9UNW1_337_SSCTLFQDIFQHLDK (UniProt Q9UNW1) | 0.226 | 0.154
60 | MKI67_P46013_261_ENVLQYCR (UniProt P46013) | -0.117 | -0.129
61 | MIB1_Q86YT6_62_CSGAYDLR (UniProt Q86YT6) | -0.0439 | 0.0552
62 | MRE11_P49959_336_VTQAIQSFCLEK (UniProt P49959) | 0.123 | 0.268
63 | MRC2_Q9UBG0_201_YDNQWFHGCTSTGR (UniProt Q9UBG0) | -0.768 | -1.05
64 | MICAL2_O94851_411_QAHQLLVALVGDSLLEPFWPMGTGCAR (UniProt O94851) | -0.201 | -0.00304
65 | MLST8_Q9BVC4_34_FWQAHSGICTR (UniProt Q9BVC4) | -0.0292 | 0.153
66 | MMS19_Q96T76_331_EVFQTASERVEAEGLAALHSLTACLSR (UniProt Q96T76) | -0.133 | 0.139

Look-ups from the entries so far.
probe-labelled cysteine peptide fold change (50 µM), MIF_P14174_81_LLCGLLAER (UniProt P14174) reads -0.117
probe-labelled cysteine peptide fold change (50 µM), MICALL1_Q8N3F8_597_GSSGPQPAKPCSGATPTPLLLVGDR (UniProt Q8N3F8) reads -0.301

Single records, from the list above.
MIB1_Q86YT6_62_CSGAYDLR (UniProt Q86YT6) reads probe-labelled cysteine peptide fold change (10 µM): -0.0439; probe-labelled cysteine peptide fold change (50 µM): 0.0552
MIF_P14174_81_LLCGLLAER (UniProt P14174) reads probe-labelled cysteine peptide fold change (10 µM): -0.156; probe-labelled cysteine peptide fold change (50 µM): -0.117

(further entries)

Row | Target | probe-labelled cysteine peptide fold change (10 µM) | probe-labelled cysteine peptide fold change (50 µM)
67 | MOB4_Q9Y3A3_188_QIFDEYENETFLCHR (UniProt Q9Y3A3) | 0.236 | 0.102
68 | MGA_Q8IWI9_355_QEISECLIASSFEDDSR (UniProt Q8IWI9) | -0.309 | -0.16
69 | MRC2_Q9UBG0_351_DCSIALPYVCK (UniProt Q9UBG0) | 0.0538 | 0.164
70 | MRPL19_P49406_248_GIRFDLCLTEQQMK (UniProt P49406) | -0.116 | -0.11
71 | MICAL3_Q7RTP6_25_FVQATTCK (UniProt Q7RTP6) | 0.129 | 0.225
72 | MRPL37_Q9BZE1_268_NHVLETFYPISPIIDLHECNIYDVK (UniProt Q9BZE1) | 0.13 | 0.012
73 | MMS19_Q96T76_331_REVFQTASERVEAEGLAALHSLTACLSR (UniProt Q96T76) | -0.435 | -0.225
74 | MKRN1_Q9UHC7_305_FGILSNCNHTYCLK (UniProt Q9UHC7) | -0.0456 | 0.0154
75 | MRM3_Q9HC36_309_ASDHGWVCDQR (UniProt Q9HC36) | 0.135 | -0.1
76 | MPST_P25325_7_ASPQLCR (UniProt P25325) | -0.185 | 0.0739
77 | MIOS_Q9NXC5_321_SVQPCDNYIASFAWHPTSQNR (UniProt Q9NXC5) | 0.11 | -0.43
78 | MRPL44_Q9H9J2_276_QSGGTTALPLYFVGLYCDK (UniProt Q9H9J2) | -0.0405 | -0.042
79 | MGMT_P16455_24_LELSGCEQGLHEIK (UniProt P16455) | -0.216 | -0.404
80 | MKI67_P46013_903_SEETNTEIVECILK (UniProt P46013) | -0.0239 | -0.132
81 | MITD1_Q8WV92_233_FSLGYCDFDLRPCHETTVDIFHKK (UniProt Q8WV92) | -0.179 | -0.197
82 | MRPL22_Q9NWU5_70_RPAEIYHCR (UniProt Q9NWU5) | 0.0067 | 0.0175
83 | MRPL37_Q9BZE1_153_NHIENQDECVLNVISHAR (UniProt Q9BZE1) | 0.0209 | 0.139
84 | MKRN1_Q9UHC7_259_SCIEAHEK (UniProt Q9UHC7) | -0.021 | -0.0543
85 | MPDU1_O75352_37_CYDQLFVQWDLLHVPCLK (UniProt O75352) | -0.0439 | 0.143
